Test results as given in article PMC9334759.
Read-outs that look alike come from different tables or passages of the source. These are yes or no findings as the source states them, for the method shown. In cells and extracts the contact can be indirect. Here binding means that the protein was enriched with, or labelled near, the bait; the list need not be complete.

Amino acid sequences for entries named in this document (tags omitted). A change or cut given only in a name is not applied to a line headed by its entry.
UniProt P78552: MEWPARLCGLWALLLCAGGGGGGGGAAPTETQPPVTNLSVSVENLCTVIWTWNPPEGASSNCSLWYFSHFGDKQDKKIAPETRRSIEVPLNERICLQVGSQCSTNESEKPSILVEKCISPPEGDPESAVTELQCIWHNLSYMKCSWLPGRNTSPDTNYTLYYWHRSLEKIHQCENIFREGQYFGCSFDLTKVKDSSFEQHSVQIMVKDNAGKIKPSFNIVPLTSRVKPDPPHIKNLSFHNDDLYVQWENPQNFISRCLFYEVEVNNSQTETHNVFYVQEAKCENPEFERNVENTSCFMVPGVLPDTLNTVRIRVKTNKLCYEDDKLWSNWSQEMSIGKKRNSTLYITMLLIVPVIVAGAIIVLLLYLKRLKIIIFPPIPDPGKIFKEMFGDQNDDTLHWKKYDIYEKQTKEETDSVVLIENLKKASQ
UniProt Q15386: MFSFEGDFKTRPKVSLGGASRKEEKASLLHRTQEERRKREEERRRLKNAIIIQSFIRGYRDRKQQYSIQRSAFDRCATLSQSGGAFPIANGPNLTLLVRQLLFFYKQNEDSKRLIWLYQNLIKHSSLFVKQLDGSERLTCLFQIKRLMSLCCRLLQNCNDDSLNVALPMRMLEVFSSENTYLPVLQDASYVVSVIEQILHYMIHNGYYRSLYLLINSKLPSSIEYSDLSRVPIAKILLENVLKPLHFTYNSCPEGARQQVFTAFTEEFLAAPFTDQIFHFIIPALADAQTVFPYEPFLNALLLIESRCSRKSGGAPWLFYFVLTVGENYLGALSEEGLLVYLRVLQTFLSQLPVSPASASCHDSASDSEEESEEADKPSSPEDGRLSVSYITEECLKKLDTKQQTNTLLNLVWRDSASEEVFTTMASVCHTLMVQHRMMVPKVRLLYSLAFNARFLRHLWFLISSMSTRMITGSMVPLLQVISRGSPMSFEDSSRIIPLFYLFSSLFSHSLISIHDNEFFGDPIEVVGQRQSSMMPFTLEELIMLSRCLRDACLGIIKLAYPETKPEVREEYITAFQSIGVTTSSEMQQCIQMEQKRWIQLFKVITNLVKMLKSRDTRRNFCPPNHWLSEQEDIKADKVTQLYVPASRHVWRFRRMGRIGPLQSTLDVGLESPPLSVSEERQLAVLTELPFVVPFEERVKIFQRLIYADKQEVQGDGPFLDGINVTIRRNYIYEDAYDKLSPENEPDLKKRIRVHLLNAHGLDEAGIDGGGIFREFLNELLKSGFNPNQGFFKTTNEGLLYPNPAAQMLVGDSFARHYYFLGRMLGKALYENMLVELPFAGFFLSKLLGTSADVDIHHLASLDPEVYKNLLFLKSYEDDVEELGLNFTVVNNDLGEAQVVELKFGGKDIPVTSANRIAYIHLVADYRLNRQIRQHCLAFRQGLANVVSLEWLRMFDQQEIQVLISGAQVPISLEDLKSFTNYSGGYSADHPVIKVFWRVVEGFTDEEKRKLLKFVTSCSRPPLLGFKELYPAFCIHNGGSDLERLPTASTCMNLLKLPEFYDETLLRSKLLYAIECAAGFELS

B1: hexokinase 2 (endogenous, LNCaP) (enzyme, UniProt P52789 1-917)
chain: MIASHLLAYFFTELNHDQVQKVDQYLYHMRLSDETLLEISKRFRKEMEKGLGATTHPTAAVKMLPTFVRSTPDGTEHGEFLALDLGGTNFRVLWVKVTDNGLQKVEMENQIYAIPEDIMRGSGTQLFDHIAECLANFMDKLQIKDKKLPLGFTFSFPCHQTKLDESFLVSWTKGFKSSGVEGRDVVALIRKAIQRRGDFDIDIVAVVNDTVGTMMTCGYDDHNCEIGLIVGTGSNACYMEEMRHIDMVEGDEGRMCINMEWGAFGDDGSLNDIRTEFDQEIDMGSLNPGKQLFEKMISGMYMGELVRLILVKMAKEELLFGGKLSPELLNTGRFETKDISDIEGEKDGIRKAREVLMRLGLDPTQEDCVATHRICQIVSTRSASLCAATLAAVLQRIKENKGEERLRSTIGVDGSVYKKHPHFAKRLHKTVRRLVPGCDVRFLRSEDGSGKGAAMVTAVAYRLADQHRARQKTLEHLQLSHDQLLEVKRRMKVEMERGLSKETHASAPVKMLPTYVCATPDGTEKGDFLALDLGGTNFRVLLVRVRNGKWGGVEMHNKIYAIPQEVMHGTGDELFDHIVQCIADFLEYMGMKGVSLPLGFTFSFPCQQNSLDESILLKWTKGFKASGCEGEDVVTLLKEAIHRREEFDLDVVAVVNDTVGTMMTCGFEDPHCEVGLIVGTGSNACYMEEMRNVELVEGEEGRMCVNMEWGAFGDNGCLDDFRTEFDVAVDELSLNPGKQRFEKMISGMYLGEIVRNILIDFTKRGLLFRGRISERLKTRGIFETKFLSQIESDCLALLQVRAILQHLGLESTCDDSIIVKEVCTVVARRAAQLCGAGMAAVVDRIRENRGLDALKVTVGVDGTLYKLHPHFAKVMHETVKDLAPKCDVSFLQSEDGSGKGAALITAVACRIREAGQR

Key:
[1] = target: GST-tagged IL13Rα1 (human) (UniProt P78552); experiment: affinity purification with mass spectrometry; GST-IL13Rα1 (500 µg) on Glutathione-Sepharose 4B beads incubated with whole cell lysates of LNCaP cells at 4 °C overnight; bound proteins separated by SDS-PAGE and identified by MS; only the target purified
[2] = target: GST-tagged IL13Rα1 (human) (UniProt P78552); experiment: as above; remark: listed apart in the source

Molecule	binding [1]	binding [2]
ubiquitin protein ligase E3C (endogenous, LNCaP) (from UniProt Q15386 1-1083) (enzyme)	binds	–
B1	–	binds
